Measurements taken from US20040006216A1.
Results are given in words; binding and its absence hold for the method and conditions named. Some binding calls cover weakened binding; strength is not graded here.

Protein sequences, listed by entry. Tags and fused reporters are not part of them. Lines headed by an entry give the natural chain unless they say otherwise; changes in a name come on top.
UniProt P07766: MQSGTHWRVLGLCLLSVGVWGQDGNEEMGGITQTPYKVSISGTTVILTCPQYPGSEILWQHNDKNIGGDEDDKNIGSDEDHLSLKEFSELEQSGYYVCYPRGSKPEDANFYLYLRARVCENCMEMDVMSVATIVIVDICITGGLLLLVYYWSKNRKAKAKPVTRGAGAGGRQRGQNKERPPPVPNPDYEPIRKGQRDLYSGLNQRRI
UniProt P09693: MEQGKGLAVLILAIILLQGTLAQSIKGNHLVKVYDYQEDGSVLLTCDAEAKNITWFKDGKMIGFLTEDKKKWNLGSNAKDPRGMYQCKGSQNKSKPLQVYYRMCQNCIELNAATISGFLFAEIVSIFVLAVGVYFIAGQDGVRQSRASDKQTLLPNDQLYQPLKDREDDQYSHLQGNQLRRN
UniProt P04234: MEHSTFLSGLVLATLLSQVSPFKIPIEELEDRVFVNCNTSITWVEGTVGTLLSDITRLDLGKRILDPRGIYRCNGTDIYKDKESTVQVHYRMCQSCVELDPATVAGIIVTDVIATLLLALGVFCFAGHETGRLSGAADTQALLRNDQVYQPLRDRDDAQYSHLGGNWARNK
UniProt P20963: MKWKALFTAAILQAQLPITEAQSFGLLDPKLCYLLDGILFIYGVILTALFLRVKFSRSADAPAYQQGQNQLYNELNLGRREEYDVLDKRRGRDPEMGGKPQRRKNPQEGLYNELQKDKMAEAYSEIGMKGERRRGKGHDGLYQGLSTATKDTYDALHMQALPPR

Target: human CD3 antigen complex (human) (UniProt P07766+P09693+P04234+P20963)
Test: FACS competition on human T-cell blasts, competitor FITC UCHT-1

B1: YTH 12.5.14.2 rat IgG2b monoclonal antibody specific for the CD3 antigen complex (antibody, V domains shown)
VH: QVQLQESGGGLVQPGRSMKLSCAASGFTFSSFPMAWVRQAPKKGLEWVATISTSGGRTYYRDSVKGRFTISRDNGKSILYLQMNSLRSEDTATYYCSRFRQYSGGFDYWGQGTTVTVSS
VL: QAVVTQANSVSTSLGSTVKLSCTLSSGNIENNYVHWYQLYEGRSPTTMIYDDDKRPDGVPDRFSGSIDRSSNSAFLTIHNVAIEDEAIYFCHSYVSSFNVFGGGTKLTVLR
- binding: binds
